Experimental data: doi:10.1101/2020.11.12.379222
These are yes or no findings as the source states them, for the method shown. A result given as binding can be weak or reduced; the word gives no strength. For some assays here: Binding seen in cells or lysates may run through a third protein.

Chains of the proteins cited; added tags and fusions are not shown. Lines headed by an entry give the natural chain unless they say otherwise; changes in a name come on top.
UniProt Q9JLU4: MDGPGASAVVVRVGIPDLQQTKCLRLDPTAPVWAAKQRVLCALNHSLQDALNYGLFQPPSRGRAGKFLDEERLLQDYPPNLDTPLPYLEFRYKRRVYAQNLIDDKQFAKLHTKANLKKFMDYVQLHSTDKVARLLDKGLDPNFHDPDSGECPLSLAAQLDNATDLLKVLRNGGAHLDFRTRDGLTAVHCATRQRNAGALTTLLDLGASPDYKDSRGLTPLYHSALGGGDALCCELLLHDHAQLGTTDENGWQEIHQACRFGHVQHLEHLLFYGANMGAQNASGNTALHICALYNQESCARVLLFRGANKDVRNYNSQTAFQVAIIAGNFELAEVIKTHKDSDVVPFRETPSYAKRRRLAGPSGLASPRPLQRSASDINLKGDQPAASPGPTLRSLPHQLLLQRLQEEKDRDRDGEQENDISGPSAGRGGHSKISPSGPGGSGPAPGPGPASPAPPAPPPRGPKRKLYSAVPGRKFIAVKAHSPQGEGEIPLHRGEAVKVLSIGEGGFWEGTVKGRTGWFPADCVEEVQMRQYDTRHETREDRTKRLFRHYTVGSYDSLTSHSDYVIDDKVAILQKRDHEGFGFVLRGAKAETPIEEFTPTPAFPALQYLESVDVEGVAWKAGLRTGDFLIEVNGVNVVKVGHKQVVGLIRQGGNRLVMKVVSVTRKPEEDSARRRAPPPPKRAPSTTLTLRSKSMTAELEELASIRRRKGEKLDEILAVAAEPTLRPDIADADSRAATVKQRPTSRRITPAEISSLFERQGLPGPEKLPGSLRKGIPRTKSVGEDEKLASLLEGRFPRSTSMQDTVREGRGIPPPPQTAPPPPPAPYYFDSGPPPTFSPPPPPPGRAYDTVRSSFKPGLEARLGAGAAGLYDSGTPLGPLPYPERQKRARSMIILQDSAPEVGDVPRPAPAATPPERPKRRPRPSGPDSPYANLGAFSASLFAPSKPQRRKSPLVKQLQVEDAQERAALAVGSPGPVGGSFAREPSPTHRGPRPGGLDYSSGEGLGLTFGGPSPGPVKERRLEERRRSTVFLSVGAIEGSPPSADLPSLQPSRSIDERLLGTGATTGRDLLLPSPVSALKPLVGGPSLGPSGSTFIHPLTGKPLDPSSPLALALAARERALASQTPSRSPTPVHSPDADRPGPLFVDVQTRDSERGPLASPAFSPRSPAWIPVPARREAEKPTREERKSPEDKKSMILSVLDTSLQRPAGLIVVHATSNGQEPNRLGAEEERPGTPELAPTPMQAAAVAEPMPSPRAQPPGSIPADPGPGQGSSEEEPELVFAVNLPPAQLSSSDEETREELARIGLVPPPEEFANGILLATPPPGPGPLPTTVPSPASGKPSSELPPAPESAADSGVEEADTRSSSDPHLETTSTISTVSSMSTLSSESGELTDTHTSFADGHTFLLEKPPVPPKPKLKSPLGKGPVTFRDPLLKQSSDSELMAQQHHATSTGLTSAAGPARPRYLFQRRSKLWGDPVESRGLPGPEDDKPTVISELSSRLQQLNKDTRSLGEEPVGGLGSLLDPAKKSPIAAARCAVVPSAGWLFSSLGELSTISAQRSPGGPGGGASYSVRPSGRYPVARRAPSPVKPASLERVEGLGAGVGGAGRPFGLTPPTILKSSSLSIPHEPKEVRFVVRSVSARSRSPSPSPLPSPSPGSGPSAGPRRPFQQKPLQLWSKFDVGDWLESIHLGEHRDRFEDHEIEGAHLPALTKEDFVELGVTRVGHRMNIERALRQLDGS
UniProt P61224: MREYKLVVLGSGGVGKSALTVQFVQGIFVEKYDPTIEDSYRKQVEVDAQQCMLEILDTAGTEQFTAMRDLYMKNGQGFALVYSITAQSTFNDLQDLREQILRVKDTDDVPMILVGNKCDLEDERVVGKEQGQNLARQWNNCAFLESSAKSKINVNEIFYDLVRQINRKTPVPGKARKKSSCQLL
UniProt P62834: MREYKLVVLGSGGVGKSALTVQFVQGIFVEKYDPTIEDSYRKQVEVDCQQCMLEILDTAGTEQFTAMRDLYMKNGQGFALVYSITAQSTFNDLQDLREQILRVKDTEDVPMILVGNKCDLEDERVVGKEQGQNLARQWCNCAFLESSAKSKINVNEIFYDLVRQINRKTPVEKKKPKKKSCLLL

Legend:
[1] = biological target: GST SHANK3 SPN domain, wild type (rat) (UniProt Q9JLU4); experiment: co-sedimentation
[2] = biological target: GST SHANK3 SPN domain, wild type (rat) (UniProt Q9JLU4); experiment: pull-down

binding [1]	binding [2]	Substance
binds		active GMPPCP-loaded His-Rap1b (from UniProt P61224 1-184)
	binds	GFP Rap1 Q63E (constitutively active human Rap1A) (from UniProt P62834 1-184)
